# Source: the supplement of paper PMC8728848
# The other results are listed elsewhere or left out.
# B1: SJCP1531 (Schistosoma japonicum) (protein)
# chain: MFKVRIINLVNISTVLLLINLLQTKSQVNVEQLVTVLEVNIKAQLKNKTTEVLVEWNPLYQDNSMPEYRKLLDETCKLFLPFVNEKVPPSTYGGECTNANFSEAPQDGSYSRVNAELRLIYKYSDNPQIQTDRLQDDLNDREEFITSESSFVAYNPKFTVKIEKLFIPISESQTTPPPTTAKNDASKKDDDDNGGEDSKAPIDTFAMTASGNKGKKDDDDNGGEDSKAPIDTFAMTASGSKDERSTWTIIGIITLVVLIFVVIGGGITVFVKRC
# Assays:
# Experiment in all cases: glycan array binding signal (z-score within array); higher = stronger binding
# Conditions in all cases: glycan notation: IUPAC condensed, linker removed
# [1] = target: Gal(b1-4)GlcNAc(b1-2)Man(a1-3)[Gal(b1-4)GlcNAc(b1-2)Man(a1-6)]Man(b1-4)GlcNAc(b1-4)[Fuc(a1-6)]GlcNAc
# Method in brief: (§1)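 The Consortium for Functional Glycomics database supplied 3228 glycan arrays, of which those lacking an available protein sequence were dropped. The binding signal, a within-array Z-score, was averaged across arrays of the same protein sequence and across linkers. Negative scores can be read as non-binding.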
# [2] = target: Gal(b1-4)GlcNAc(b1-2)Man(a1-3)[Gal(b1-4)GlcNAc(b1-2)Man(a1-6)][Gal(b1-4)GlcNAc(b1-4)]Man(b1-4)GlcNAc(b1-4)[Fuc(a1-6)]GlcNAc
# Method in brief: as §1
# [3] = target: Gal(b1-4)GlcNAc(b1-2)Man(a1-3)[Gal(b1-4)GlcNAc(b1-2)Man(a1-6)][GlcNAc(b1-4)]Man(b1-4)GlcNAc(b1-4)[Fuc(a1-6)]GlcNAc
# Method in brief: as §1
# [4] = target: Gal(b1-4)GlcNAc(b1-2)Man(a1-3)[GlcNAc(b1-2)Man(a1-6)]Man(b1-4)GlcNAc(b1-4)GlcNAc
# Method in brief: as §1
# [5] = target: Gal(b1-4)GlcNAc(b1-2)Man(a1-3)[GlcNAc(b1-4)][Gal(b1-4)GlcNAc(b1-2)Man(a1-6)]Man(b1-4)GlcNAc(b1-4)GlcNAc
# Method in brief: as §1
# [6] = target: Gal(b1-4)GlcNAc(b1-2)Man(a1-3)[Man(a1-6)]Man(b1-4)GlcNAc(b1-4)GlcNAc
# Method in brief: as §1
# [7] = target: Gal(b1-4)GlcNAc(b1-2)Man(a1-6)Man(b1-4)GlcNAc(b1-4)GlcNAc
# Method in brief: as §1
# [8] = target: Gal(b1-4)GlcNAc(b1-2)Man(a1-6)[GlcNAc(b1-2)Man(a1-3)]Man(b1-4)GlcNAc(b1-4)GlcNAc
# Method in brief: as §1
# [9] = target: Gal(b1-4)GlcNAc(b1-2)Man(a1-6)[Man(a1-3)]Man(b1-4)GlcNAc(b1-4)GlcNAc
# Method in brief: as §1
# [10] = target: Gal(b1-4)GlcNAc(b1-2)[Gal(b1-4)GlcNAc(b1-4)]Man(a1-3)[Gal(b1-4)GlcNAc(b1-2)Man(a1-6)]Man(b1-4)GlcNAc(b1-4)GlcNAc
# Method in brief: as §1
# [11] = target: Gal(b1-4)GlcNAc(b1-2)[Gal(b1-4)GlcNAc(b1-4)]Man(a1-3)[Gal(b1-4)GlcNAc(b1-2)[Gal(b1-4)GlcNAc(b1-6)]Man(a1-6)]Man(b1-4)GlcNAc(b1-4)GlcNAc
# Method in brief: as §1
# [12] = target: Gal(b1-4)GlcNAc(b1-2)[Gal(b1-4)GlcNAc(b1-4)]Man(a1-3)[GlcNAc(b1-4)][Gal(b1-4)GlcNAc(b1-2)Man(a1-6)]Man(b1-4)GlcNAc(b1-4)GlcNAc
# Method in brief: as §1
# [13] = target: Gal(b1-4)GlcNAc(b1-2)[Gal(b1-4)GlcNAc(b1-4)]Man(a1-3)[GlcNAc(b1-4)][Gal(b1-4)GlcNAc(b1-2)[Gal(b1-4)GlcNAc(b1-6)]Man(a1-6)]Man(b1-4)GlcNAc(b1-4)GlcNAc
# Method in brief: as §1
# [14] = target: Gal(b1-4)GlcNAc(b1-2)[Gal(b1-4)GlcNAc(b1-6)]Man(a1-6)[Gal(b1-4)GlcNAc(b1-2)Man(a1-3)]Man(b1-4)GlcNAc(b1-4)GlcNAc
# Method in brief: as §1
# [15] = target: Gal(b1-4)GlcNAc(b1-2)[Gal(b1-4)GlcNAc(b1-6)]Man(a1-6)[Gal(b1-4)GlcNAc(b1-2)Man(a1-3)]Man(b1-4)GlcNAc(b1-4)[Fuc(a1-6)]GlcNAc
# Method in brief: as §1
# [16] = target: Gal(b1-4)GlcNAc(b1-2)[Gal(b1-4)GlcNAc(b1-6)]Man(a1-6)[GlcNAc(b1-4)][Gal(b1-4)GlcNAc(b1-2)Man(a1-3)]Man(b1-4)GlcNAc(b1-4)GlcNAc
# Method in brief: as §1
# [17] = target: Gal(b1-4)GlcNAc(b1-2)[Gal(b1-4)GlcNAc(b1-6)]Man(a1-6)[GlcNAc(b1-4)][Gal(b1-4)GlcNAc(b1-2)[Gal(b1-4)GlcNAc(b1-4)]Man(a1-3)]Man(b1-4)GlcNAc(b1-4)[Fuc(a1-6)]GlcNAc
# Method in brief: as §1
# [18] = target: Gal(b1-4)GlcNAc(b1-3)Gal(b1-3)GalNAc
# Method in brief: as §1
# [19] = target: Gal(b1-4)GlcNAc(b1-3)Gal(b1-3)GlcNAc
# Method in brief: as §1
binder,measurement,setting,value
B1,glycan array binding signal (z-score),[1],-0.521
same,glycan array binding signal (z-score),[2],-0.361
same,glycan array binding signal (z-score),[3],-0.342
same,glycan array binding signal (z-score),[4],-0.771
same,glycan array binding signal (z-score),[5],0.817
same,glycan array binding signal (z-score),[6],-0.942
same,glycan array binding signal (z-score),[7],0.976
same,glycan array binding signal (z-score),[8],0.263
same,glycan array binding signal (z-score),[9],0.218
same,glycan array binding signal (z-score),[10],0.725
same,glycan array binding signal (z-score),[11],-1.04
same,glycan array binding signal (z-score),[12],0.279
same,glycan array binding signal (z-score),[13],-0.795
same,glycan array binding signal (z-score),[14],-0.726
same,glycan array binding signal (z-score),[15],-0.188
same,glycan array binding signal (z-score),[16],0.237
same,glycan array binding signal (z-score),[17],-0.775
same,glycan array binding signal (z-score),[18],-0.642
same,glycan array binding signal (z-score),[19],-0.665

# Some of the entries so far, bar-delimited:
binder | measurement | setting | value
B1 | glycan array binding signal (z-score) | [18] | -0.642
same | glycan array binding signal (z-score) | [19] | -0.665
